This passage reports binding results from PMC3758542.

No constants are given. Whether binding was seen depends on the method and setting. In cells and extracts the contact can be indirect. Some binding calls cover weakened binding; strength is not graded here. Tags and fused reporters may be left off the sequences shown.

The target in this test is T1, GFP-tagged Anillin N-terminal fragment (Ani1–409GFP) (UniProt Q9V4P1).
T1 sequence: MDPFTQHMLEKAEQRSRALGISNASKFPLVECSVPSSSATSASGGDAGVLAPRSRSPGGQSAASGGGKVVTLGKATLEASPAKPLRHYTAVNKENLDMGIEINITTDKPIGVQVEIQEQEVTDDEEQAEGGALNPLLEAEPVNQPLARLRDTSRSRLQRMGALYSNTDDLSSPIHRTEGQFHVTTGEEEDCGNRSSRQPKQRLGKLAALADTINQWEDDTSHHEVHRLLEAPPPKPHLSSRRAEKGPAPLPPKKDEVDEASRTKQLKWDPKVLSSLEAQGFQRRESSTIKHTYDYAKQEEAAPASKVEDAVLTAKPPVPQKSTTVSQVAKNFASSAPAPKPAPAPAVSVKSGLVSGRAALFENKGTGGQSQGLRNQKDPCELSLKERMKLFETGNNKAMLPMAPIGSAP
The experiment in a line: co-IP; GFP-Trap immunoprecipitation from total extract of D.Mel-2 cells co-transfected for 3 days; immunoblot with anti-GFP and anti-FLAG. (In general: In western blotting, separated proteins are transferred to a membrane and probed.)

B1: FLAG-tagged Syndapin (protein, UniProt Q9VDI1 1-494)
chain: MSHHSDDQLLQAGSDSFWEPGNYKRTTKRIEDGYKLCNDLQQLIQERADIEKGYAKSLRTWSKKWGELIEKGPEYGTTEAAWKGVLTESERISDVHMKIKDNLCNDVNSQIKTWQKENYHHTLMQIKERKDLEDLFKKAQKPWAKLLAKVEKAKADYHSACKTERSATNQERNANADSSLSPDQVKKMHDRVQKTKDQVQKCREKYEQAIAEITKYNSVYIEDMTSVFEKCQTFEKTRLQFFKEILFNVHSCLDLTKVQSLPQIYEEFSHTINNADQQKDLKWWSNNHGINMAMNWPSFVEYTEEFRDIAKGNKSKEALPAAPITLINQRPVAEDVHEYPQTNSLKKNTSTLSSVSSRASVKSEIATTQSSVTTSEAKTSAAVAGAATATAAATAASAASNRNSSVTNGNGKVDANPFDEEEEWDESDNVLVDNGEPGVPVKALYDYEGAESDELTFKQGDVFEKLEDEDEQGWCKGRMNGRVGLYPANYVETA
Consider B1, for which the binding result is on record as “binds”.
